The source of these data is the supplement of paper PMC5949888.

Most values lie at the floor of the assay. Slopes are relative: functional sequences can read slightly below zero.

This data set relates to Saccharomyces cerevisiae PS128 hsf1 delta, HSF1(1-493) fusion. As to the kind of experiment: growth estimate (transactivation domain function in HSF1 fusion, heat-shock survival) (a.u. (slope of normalised read count over time)); higher = stronger growth at 37°C, i.e. more transactivation activity. The conditions noted are these: library: random library. The method, then: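 Random 60-nt DNA library encoding peptides of up to 20 aa, fused to the C-terminus of yeast HSF1 residues 1-493 (C-terminal TAD deleted) and expressed from the native HSF1 promoter on a CEN plasmid in hsf1-deleted S. cerevisiae PS128. Cells were selected at 37°C on -trp 5-FOA plates for 0, 2, 4, 6 and 8 days and amplicons were sequenced. Growth estimate is the slope of a robust linear fit of total-sum-normalised read counts (normalised to the first time point) over time, using at least 2 replicates. Sequences are classed functional (TAD activity) above a threshold of -0.13, set from stop-codon control sequences.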
Take DRNYLLGDMLV: the growth estimate was less than -0.25.

As for CRMGVIS, the growth estimate was less than -0.25.

For IGSHGG, the growth estimate is less than -0.25.

Consider RDRNGFRVRV, for which the growth estimate was less than -0.25.

For EISTMVCFVLTRLFIPRIFP, the growth estimate was less than -0.25.

In the case of VLQEPGIVTI, the growth estimate was less than -0.25.

With YPTCNQPSLPQTPIGEVGWA, the growth estimate was less than -0.25.

For the substance TRVCMKEAGSGLFCPFCENL, the growth estimate is less than -0.25.

As to GGST, the growth estimate was less than -0.25.

Turning to ATGALSAGG, the growth estimate was less than -0.25.

Consider SPGMCGAENQSCKRPNESHR, for which the growth estimate was less than -0.25.

As to QRETALGP, the growth estimate was less than -0.25.

As to TEARLGTVF, the growth estimate is less than -0.25.

Regarding RIFRNKLQTFIVCSDVRTGT, the growth estimate is less than -0.25.

Regarding GEFVGQPRGPALALTQSKRS, the growth estimate was less than -0.25.

Turning to CRRFDALGFDW, the growth estimate was -0.0054.

Consider GWGANFPSNGCTNDRPGA, for which the growth estimate is less than -0.25.

DLPRIMAEIT: the growth estimate is less than -0.25.

For RTVHTRA, the growth estimate was less than -0.25.

With YESKERITLHGRLATEHWSG, the growth estimate is less than -0.25.

Take SAVKRTDVSVSAVVHRISTH: the growth estimate was less than -0.25.

As for LNSGLTHGPHNEQSQGPRNL, the growth estimate is less than -0.25.

With EFCGDRRAYKLREKLEPPFC, the growth estimate was -0.227.

With QVKSVQVSSVSN, the growth estimate is less than -0.25.

Consider GSSP, for which the growth estimate was less than -0.25.

For the substance EHVRTRCIFISVALACTIIP, the growth estimate was less than -0.25.

Take WVSSVKDDPFLLEKTYNLGE: the growth estimate was less than -0.25.

For GRVYAVIREYAQCVAGGVRA, the growth estimate was less than -0.25.

As to LDCDWHPRSAKFDRGTSP, the growth estimate is less than -0.25.

Take GDRVNKGPRYNWWNL: the growth estimate was -0.218.

Consider CDWVNLDTAGTRLCNISFGV, for which the growth estimate is -0.118.

SWDSNVEPFK: the growth estimate was less than -0.25.

LNVTRALDIRYQFKRHLQDT: the growth estimate was less than -0.25.

As to VMDP, the growth estimate was less than -0.25.

In the case of DGSRVAFVGRSGDGRLVQLT, the growth estimate was less than -0.25.

Regarding LTFV, the growth estimate is less than -0.25.

Take ATTS: the growth estimate is less than -0.25.

With GWEEDLAKLRIARAGSL, the growth estimate is less than -0.25.

For VSYRCSTQSEALSSMLTGRA, the growth estimate is less than -0.25.

On to CLK, for which the growth estimate was -0.245.

On to RSGRRVPLTSSAYARVIDDR, for which the growth estimate is less than -0.25.

KGSVNRIVAMSGCVQLRQRP: the growth estimate was less than -0.25.

As to SVVIWEKGLLILDDLRGFNA, the growth estimate is less than -0.25.

Take DRMMVYSRSVL: the growth estimate is less than -0.25.

Turning to YLSTAVVRGQFAPHCKLLWG, the growth estimate was less than -0.25.

In the case of CWGVTRGEPRPDRVRDEKRA, the growth estimate was less than -0.25.

Regarding PRSRRACTRYVSSLRIQAFS, the growth estimate is less than -0.25.

Regarding LGEFIRRELTSVALVPLRGY, the growth estimate was -0.243.

In the case of VTPLAELMAPLAGGIADSVA, the growth estimate was -0.246.

With LAIHVRTLGPFEAPGYQIPR, the growth estimate is less than -0.25.

In the case of LGAR, the growth estimate is less than -0.25.

TQGPRGWH: the growth estimate is -0.229.

RWQSGQIEGRPVGCNVLCHI: the growth estimate is less than -0.25.

Turning to LRPLFASNTSGFGDIWFDLR, the growth estimate is 0.304.

With FRLEVRSLGVSVTANASHLI, the growth estimate is less than -0.25.

As for PILSENLGDGQVDRYFSSAN, the growth estimate was less than -0.25.

Regarding ASPI, the growth estimate was less than -0.25.

Turning to VNFG, the growth estimate is less than -0.25.

Regarding LGVVIKTSDGKFPGYQRFAS, the growth estimate was less than -0.25.

With LYWGISVCVVLELALIRSNN, the growth estimate was less than -0.25.

For ESDHGKTF, the growth estimate is less than -0.25.

In the case of LCSAKLNMSTRGGLAACGGG, the growth estimate was less than -0.25.

In the case of LGSEVRSITTSMPDARYTLG, the growth estimate is less than -0.25.

In the case of EFRTEIPTCRAIGQSSDFEN, the growth estimate was less than -0.25.

For RRWQRKKVSPGRMARSIGDD, the growth estimate was less than -0.25.

Turning to GLFV, the growth estimate is less than -0.25.

KILSGIPCTHSA: the growth estimate was less than -0.25.

For the substance NQQCWDRTEKDCSESSVAGQ, the growth estimate is -0.248.

Regarding VWATDNQPLAGRFVRLSTLV, the growth estimate is less than -0.25.

As for LLLARRAERSTCIRQIAPAN, the growth estimate was less than -0.25.

KGGSCVECHLAHESKTPSPW: the growth estimate was less than -0.25.

On to SVTVGGEGEPCESREHRPGP, for which the growth estimate was less than -0.25.

Turning to RSGVGGRAVLRV, the growth estimate was less than -0.25.

As to LGASA, the growth estimate is less than -0.25.

Regarding TIEVGQCNREADSLCARHST, the growth estimate is less than -0.25.

Regarding LGRLTGFRSTTNLGLGQSQY, the growth estimate was less than -0.25.

With AYLVRLQFNSHFQDIKCLAP, the growth estimate was less than -0.25.

In the case of RRYRQRLGQRLHLA, the growth estimate was -0.245.

On to NRTMAQLV, for which the growth estimate was less than -0.25.

As to QDLRSLPRERNGEKYCGTGR, the growth estimate is less than -0.25.

FLPPYLDGAFLPSLSGLLIC: the growth estimate was less than -0.25.

In the case of DQSDGMFSNAVEACRHLSEQ, the growth estimate was less than -0.25.

Take QLRMSLLQLSFERAWTEIHV: the growth estimate was less than -0.25.

CRFDDDDV: the growth estimate is less than -0.25.

For the substance AAIHEVAAVVS, the growth estimate is less than -0.25.

For FSERGISLPVASRHGHPTM, the growth estimate is less than -0.25.

For WSNGEALQWRNVRGRSVHDY, the growth estimate is less than -0.25.

With DQGMSWYIWSHKRMAC, the growth estimate is less than -0.25.

GTLCSPE: the growth estimate is less than -0.25.

As for VAGSGVY, the growth estimate was less than -0.25.

As for IAYIWKFGATAMGLPGAFYH, the growth estimate was less than -0.25.

Turning to FLWLQRKRPGTILRPRLGLR, the growth estimate was less than -0.25.

With KNRQCIGK, the growth estimate is less than -0.25.

As for TDSLP, the growth estimate was less than -0.25.

Turning to GTPAGGD, the growth estimate was less than -0.25.

Consider RVSVFLPAPEFMVRQAPTEE, for which the growth estimate was less than -0.25.

With TISTGGIQVPRFPLYARAAR, the growth estimate is less than -0.25.

For the substance ASGRLNYGN, the growth estimate was less than -0.25.

ASRSHRSVLGIWQIPL: the growth estimate was less than -0.25.

Take IPPFPAMQKRRSLSHTKFGA: the growth estimate is less than -0.25.

Consider ANPGSGCTEHRSRRQFRVLT, for which the growth estimate is less than -0.25.

For the substance RENSILRWARPKLFSILTLY, the growth estimate is less than -0.25.

Turning to ECEPWG, the growth estimate is less than -0.25.

As for NVSWSLVKRGRHGQRC, the growth estimate was less than -0.25.

For INTPCAGTDRKS, the growth estimate was less than -0.25.

Consider MGGYNRGHGVADRKGMMSKR, for which the growth estimate was less than -0.25.

Take GLLSTIILRRVVHVNGEVAP: the growth estimate is less than -0.25.

DFVHGLPVPRILSSLANCSA: the growth estimate is less than -0.25.

Take GRWKIGHK: the growth estimate is less than -0.25.

Regarding KLCTRGLLSCDIPTWKRPRD, the growth estimate is less than -0.25.

For the substance NCERLLARVQTVG, the growth estimate is less than -0.25.

Take INRCIVGSKV: the growth estimate is less than -0.25.

With VHWRANRFVRVVRAAP, the growth estimate was less than -0.25.

With IAPWSAIFNQV, the growth estimate was less than -0.25.

In the case of SYPRVNFSSTMIRINSALGG, the growth estimate is less than -0.25.

Regarding ELTSKHSRCALNKLASRGSR, the growth estimate was 0.0328.

With NPIMESAMR, the growth estimate is less than -0.25.

With ALKPGRLCSTRLGHSGPPLR, the growth estimate is less than -0.25.

For HRQR, the growth estimate was less than -0.25.

For YIDQLKVRKITRRVGYRRTL, the growth estimate is less than -0.25.

For the substance RLRECPKV, the growth estimate was less than -0.25.

Regarding GFKFEISANQLGVGHYVVCT, the growth estimate is less than -0.25.

As for EDQRVSEPQLIGGLTT, the growth estimate was less than -0.25.

Regarding GPRRASSFFLKFDANVGNSR, the growth estimate is less than -0.25.

For the substance GYRDEGARDRFLVGLAGRGG, the growth estimate was less than -0.25.

For RSKCSIAIECIVNICTR, the growth estimate was less than -0.25.

Turning to LPGTPADRVKGVGGANIEWA, the growth estimate was less than -0.25.

For the substance PSDMRL, the growth estimate was less than -0.25.

SGTAIRKPAR: the growth estimate was less than -0.25.

Consider MPSGMCWSL, for which the growth estimate is less than -0.25.

Take LGVRLVSAGARQMDFALGHT: the growth estimate was less than -0.25.

In the case of IRVRARVGYGVLGGRYRGLS, the growth estimate was less than -0.25.

Regarding SVNCRMVHRRMVVSQLRSGL, the growth estimate was less than -0.25.

Consider GAKITGL, for which the growth estimate is less than -0.25.

Turning to NNKR, the growth estimate was -0.189.

On to HKCSEKLSVTALVADRVRDD, for which the growth estimate was less than -0.25.

On to YQHRGSTCTMPQGGRHRR, for which the growth estimate is less than -0.25.

Consider TVISRCTVAPA, for which the growth estimate was less than -0.25.

Regarding WAEWGGIRGPHQPFSKNPTG, the growth estimate is less than -0.25.

For GSWCMSRWYRVAGKSGVFAS, the growth estimate was -0.241.

For the substance FRCRHTIPHASGGLCVYYLC, the growth estimate is less than -0.25.

With DNDKTGRAHPLRSRP, the growth estimate was less than -0.25.

As to KTRLFNRPKICALRSRVRKA, the growth estimate is less than -0.25.

In the case of EWTGSLSLKQMSYQ, the growth estimate is less than -0.25.

On to WHGVRA, for which the growth estimate is less than -0.25.

Turning to INKLGSFCTWFL, the growth estimate is -0.156.

On to VGNGDGASSGTGTFH, for which the growth estimate was less than -0.25.

On to TFFGALACVWSIFADQYR, for which the growth estimate is less than -0.25.

Turning to GNDLQLAIVDLSWSSLLGKN, the growth estimate is -0.243.
